According to paper PMC8701324, “Structural Insight into the Mechanism of PALB2 Interaction with MRG15” (Genes, 2021):
These are yes or no findings as the source states them, for the method shown.

Sequences of proteins named here, by UniProt entry; tags and fusion partners are left off. Residues count along the entry.
UniProt Q9UBU8, residues 194-362: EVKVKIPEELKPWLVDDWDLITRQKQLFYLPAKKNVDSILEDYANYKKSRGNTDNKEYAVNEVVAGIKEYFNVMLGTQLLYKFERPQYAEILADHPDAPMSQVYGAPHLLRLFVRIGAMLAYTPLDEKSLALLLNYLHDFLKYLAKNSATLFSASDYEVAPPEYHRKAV

Biological target: MRG15 MRG domain, amino acids 155-323 (UniProt Q9UBU8)
Assay: fluorescence polarisation; fluorescence anisotropy competition; mutant PALB2 597-630 peptides serially diluted from 10 uM to 0.6 nM against a preformed complex of MRG15 and FAM-PALB2; 25 mM HEPES pH 8.0, 1 mM TCEP, 10% DMSO, 200 mM NaCl; room temperature; both purified

binding | Binder
no binding (tested: 10 µM) | MLSLKQLLSFLSITDAQLPDEDFGPLKLEKVKSC (peptide, UniProt Q86YC2 597-630) [PALB2^597-630 peptide with Phe612 substituted by alanine]
no binding (tested: 10 µM) | MLSLKQLLSFLSITDFQLPDEDAGPLKLEKVKSC (peptide, UniProt Q86YC2 597-630) [PALB2^597-630 peptide with Phe619 substituted by alanine]
no binding (tested: 10 µM) | MLSLKQLLSFLSITDFQAPDEDFGPLKLEKVKSC (peptide, UniProt Q86YC2 597-630) [PALB2^597-630 peptide with Leu614 substituted by alanine]
